Experimental data published in PubChem BioAssay AID1487 (National Center for Advancing Translational Sciences (NCATS), 2009).
Some of the results follow. Further columns of the screen follow, without active or inactive calls. The list favours compounds with an active or inconclusive main result. Potencies come from curve fits of mixed quality, noted in brackets.

Assay: qHTS Assay for Modulators of Lamin A Splicing
Conditions: HeLa LMNA splicing GFP/RFP minigene ratio, 48 h
Summary of the method: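 Read-out is the ratio of GFP to DsRed2 object intensity, acquired by 488 nm laser-scanning cytometry on HeLa lamin A-EGFP minigene reporter cells. Compound incubation 48 hrs at 37 °C in Opti-MEM with 2% FBS; DMSO 0.5% final.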

[1] = measured here: GFP splicing reporter channel
[2] = measured here: RFP viability control channel

SMILES	AC50 [1]	AC50 [2]
Cc1ccc2cc(C3C(C#N)=C(N)Oc4c3ccc3cccnc43)c(=O)[nH]c2c1 (stereo unspecified)	17.8 µM [falling, single point]	28.2 µM [falling, single point]
O=c1oc2ccc3ccccc3c2cc1-c1nnc(-c2ccccc2)o1	25.1 µM [rising, single point]	
COc1ccc(OC)c(C2C3CN(C(C)C)CC=C3C(C#N)=C(N)C2(C#N)C#N)c1 (stereo unspecified)		35.5 µM [rising, single point]
Cc1nc(SCc2ccc(Br)cc2)[nH]c(=O)c1C		12.6 µM [rising, partial curve]
O=c1[nH]c(CCl)nc2cc(-c3ccc(Cl)cc3)sc12		20 µM [rising, single point]
O=C(O)C1=CCCN(CCON=C(c2ccccc2)c2ccccc2)C1		5.62 µM [rising, single point]
O=C(CSC1=NCCS1)Nc1ccnc2ccccc12		7.94 µM [rising, partial curve]
O=C(CN(C1CCCCC1)S(=O)(=O)c1ccc(F)cc1)Nc1ccc2c(c1)OCO2	35.5 µM [rising, single point]	35.5 µM [rising, single point]
N#CCc1ccc(NC(=O)Nc2cccc(Cl)c2)cc1	20 µM [rising, partial curve, poor fit]	22.4 µM [rising, single point]
CCOC(=O)N1CCC(NS(=O)(=O)c2cc(Br)cc3c2N(C(=O)CC)CC3)CC1		35.5 µM [rising, single point]
CCSc1nnc(NC(=O)CSc2nccn2-c2cccc(C)c2C)s1	12.6 µM [rising, partial curve]	11.2 µM [rising, partial curve]
CCc1nnc(NC(=O)c2sc3nc4c(cc3c2N)CCCCCC4)s1		0.282 µM [rising, full curve]
COc1ccc2nc(NC(=O)[C@@H]3CCCN3C(=O)c3cccs3)sc2c1	35.5 µM [rising, single point]	35.5 µM [rising, single point]
Cc1ccc(C(C[N+](=O)[O-])c2c(-c3ccccc3O)[nH][nH]c2=O)cc1 (stereo unspecified)	31.6 µM [falling, single point]	35.5 µM [falling, single point]
COCCNC(=O)C(C)OC(=O)C1=Cc2ccccc2OC1 (stereo unspecified)	4.47 µM [rising, partial curve, poor fit]	
CCCCNC(=O)C1CCC(CNS(=O)(=O)c2ccc(C)cc2)CC1 (stereo unspecified)	20 µM [falling, single point]	20 µM [falling, partial curve, poor fit]
O=C(COC(=O)C(Cc1c[nH]c2ccccc12)NC(=O)c1ccc(Cl)cc1)c1ccc(Cl)cc1 (stereo unspecified)	28.2 µM [falling, partial curve, poor fit]	
Cc1cc(C)c(NC(=O)CCn2c(=O)c3cccn3c3ccccc32)c(C)c1	0.00501 µM [falling, full curve, poor fit]	0.178 µM [falling, full curve, poor fit]
COc1ccc(NC(=O)C(OC)c2ccccc2)cc1Cl (stereo unspecified)	10 µM [rising, single point]	31.6 µM [rising, single point]
CCOC(=O)c1c(C)nc2c(c1-c1ccc(Cl)cc1)C(=O)CC(C)(C)C2		35.5 µM [rising, single point]
CCOc1ccc(CCn2c(-c3ccco3)nc3ccccc3c2=O)cc1OCC	0.224 µM [falling, full curve]	11.2 µM [rising, partial curve]
CCCCCCOc1ccc(N2C(=O)CC(N3CCN(CCN=CC4=C(O)CC(C)(C)CC4=O)CC3)C2=O)cc1 (stereo unspecified)		0.0891 µM [falling, full curve, poor fit]
Cc1cccc(NC(=S)/N=C(\N)Nc2nc(C)c3cc(C)ccc3n2)c1		0.00447 µM [rising, full curve, poor fit]
CCOC(=O)c1cnn(Cc2ccc(C)cc2)c1N		17.8 µM [falling, partial curve, poor fit]
Cc1ccc2nc(C3CCN(S(=O)(=O)c4ccc5ccccc5c4)CC3)[nH]c2c1	11.2 µM [rising, partial curve]	17.8 µM [rising, partial curve]
CCCCOC(=O)C1[C@H]2C(=O)N(CCc3ccccc3)C[C@]23C=C[C@H]1O3 (stereo partly specified)		0.0794 µM [falling, full curve, poor fit]
CCOc1ccc(NC(=O)C2CCC(N3C(=O)C4CC=CCC4C3=O)CC2)cc1 (stereo unspecified)	14.1 µM [rising, single point]	20 µM [rising, single point]

SMILES	AC50 [1]	AC50 [2]
COc1ccccc1-c1nnc2sc(-c3ccc(N(C)C)cc3)nn12	2.24 µM [falling, full curve, poor fit]	
CC(C)(C)OC(=O)NCCc1nnc(SCc2ccccc2Cl)o1		20 µM [rising, partial curve, poor fit]
CCOC(=O)c1c(-c2ccc(C)cc2)csc1NC(=S)NC(=O)c1ccccc1		6.31 µM [rising, full curve]
Cc1ccc(NC(=O)CSc2nc3ccc(NC(=O)COc4ccc(C)cc4)cc3s2)cc1	17.8 µM [falling, partial curve]	11.2 µM [falling, partial curve]
O=C(Cn1nc(CNc2ccc(Cl)cc2)[n+]2c1CCCCC2)c1ccc(Br)cc1		31.6 µM [rising, partial curve, poor fit]
Cc1ccc(NC(=O)c2c(O)c3ccccc3n(C)c2=O)nc1		35.5 µM [rising, single point]
CO/N=C/C(NC(=O)c1ccc(C(F)(F)F)cc1)C(=O)OC (stereo unspecified)	0.00501 µM [falling, full curve, poor fit]	
Cc1cc(C)n(C(=O)CNC(=O)CCc2ccccc2)n1		0.0316 µM [falling, full curve, poor fit]
Brc1ccc(C2=CSC3=NCCN23)cc1	0.282 µM [falling, full curve]	
O=C(Nc1nnc(C2CC(=O)N(c3ccc(Cl)cc3)C2)s1)c1ccco1 (stereo unspecified)		0.02 µM [falling, full curve]
COc1cc(NC(=S)Nc2ccccn2)cc(OC)c1	4.47 µM [rising, partial curve, poor fit]	0.0251 µM [rising, full curve, poor fit]
O=C(Nc1ccc2c(c1)C(=O)N(CC1CCCO1)C2=O)c1cccc(Br)c1 (stereo unspecified)	17.8 µM [rising, partial curve, poor fit]	
COc1ccc(/C=N/NC(=O)C2(C)NC(C)(C)Cc3ccccc32)cc1 (stereo unspecified)	1 µM [falling, single point]	0.794 µM [falling, partial curve, poor fit]
COCC(=O)N1CCc2nc(-c3ccc(OC)cc3C)c3c(c2C1)CO[C@@H](c1ccccc1)C3	5.62 µM [falling, single point]	0.355 µM [falling, partial curve]
CC(C)(C)c1nnc2sc(SCC(=O)c3ccc(Cl)cc3)nn2c1=O	35.5 µM [rising, single point]	35.5 µM [rising, single point]
C(=N\Nc1ncnc2sc3c(c12)CCC3)/c1ccncc1	0.0891 µM [falling, partial curve, poor fit]	0.0562 µM [falling, partial curve, poor fit]
O=c1[nH]c(/C(Cl)=C/c2cc(Cl)ccc2O)nc2cc(Cl)ccc12	35.5 µM [falling, single point]	2.24 µM [rising, single point]
O=C(Cc1ccccc1)N/N=C/c1cccn1-c1ccc([N+](=O)[O-])cc1	0.2 µM [rising, full curve, poor fit]	22.4 µM [rising, single point]
Cc1ccc(-c2nc3ncccn3c2NC2CCCC2)o1	0.398 µM [falling, full curve, poor fit]	
COc1cc(Cl)c(C)cc1NC(=O)CSc1cc(-c2ccccc2)nc(C)n1	0.224 µM [rising, partial curve, poor fit]	3.98 µM [rising, partial curve]
Cc1ccc(Cn2nnnc2CN2CCC(c3nc4ccc(Cl)cc4[nH]3)CC2)cc1		0.447 µM [rising, full curve, poor fit]
CC(C)(C)c1ccc(CN(Cc2ccccc2)C(c2ccccn2)c2nnnn2C(C)(C)C)cc1 (stereo unspecified)	11.2 µM [rising, partial curve, poor fit]	14.1 µM [rising, partial curve]
O=C1C2C3C=CC(C3)C2C(=O)N1/N=C/c1cc(Br)cc([N+](=O)[O-])c1O (stereo unspecified)		14.1 µM [rising, single point]
COc1ccc(C(=O)CSc2nnc(CNc3ccc(C)cc3C)n2Cc2ccco2)cc1		25.1 µM [rising, single point]
CCN(CC(=O)NC(C)(C)C)C(=O)c1ccc(Br)cc1		0.00447 µM [falling, full curve, poor fit]
CCCNc1nc(Nc2ccc(C)cc2)nc(N2CCCC2)n1		14.1 µM [rising, single point]
COc1ccc(-c2nc(C)c(CCNC(=O)c3c(F)cccc3F)s2)cc1		20 µM [falling, single point]

Complete entries, quoted from the list.
`COc1cc(NC(=S)Nc2ccccn2)cc(OC)c1` in the list: AC50 [1]: 4.47 µM [rising, partial curve, poor fit]; AC50 [2]: 0.0251 µM [rising, full curve, poor fit]
`COc1ccc(/C=N/NC(=O)C2(C)NC(C)(C)Cc3ccccc32)cc1` (stereo unspecified) in the list: AC50 [1]: 1 µM [falling, single point]; AC50 [2]: 0.794 µM [falling, partial curve, poor fit]
`COc1ccc(C(=O)CSc2nnc(CNc3ccc(C)cc3C)n2Cc2ccco2)cc1` in the list: AC50 [2]: 25.1 µM [rising, single point]
`Cc1ccc(NC(=O)CSc2nc3ccc(NC(=O)COc4ccc(C)cc4)cc3s2)cc1` in the list: AC50 [1]: 17.8 µM [falling, partial curve]; AC50 [2]: 11.2 µM [falling, partial curve]
